Source: the supplement of paper PMC7024190
Structures can show the parent of a compound that is named as a salt. The list shows a part of the results. This data set is noisy: repeats of one test often differ as much as different tests do.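 Human embryonic kidney cells were transiently transfected with a plasmid bearing a Renilla luciferase gene under the HSV-TK promoter. This first-round screen tests roughly ten thousand compounds for ones that increase reporter output.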

test system: HEK 293FT; test: log relative Renilla luciferase luminescence (reporter expression vs reference, reference not stated) (log (base not stated)); higher = higher recombinant reporter expression; conditions: 10 µM; time after transfection 48 h

Row | SMILES | log
1 | O=C1OC2(c3ccc(O)cc3Oc3cc(O)ccc32)c2ccccc21 [fluorescein] | 0.0764
2 | CC(=O)OCC1=C(C(=O)O)N2C(=O)[C@@H](NC(=O)CSc3ccncc3)[C@H]2SC1 [cephapirin sodium] | -0.0711
3 | COc1cnc(NS(=O)(=O)c2ccc(N)cc2)nc1 [sulfameter] | -0.034
4 | O=C(O)CCC(=O)Nc1ccc(S(=O)(=O)Nc2nccs2)cc1 [succinylsulfathiazole] | 0.00408
5 | Cc1cccc(CN2CCN(C(c3ccccc3)c3ccc(Cl)cc3)CC2)c1 (stereo not drawn) [meclizine hydrochloride] | -0.0613
6 | COc1ccccc1O [guaiacol] | 0.0119
7 | O=NN(CCCl)C(=O)NC1CCCCC1 [lomustine] | 0.0284
8 | CCOC(=O)C1=C[C@]2(CC)CCCN3CCc4c(n1c1ccccc41)[C@@H]32 [vinpocetine] | -0.214
9 | COc1ccc2c(c1)OCC(Cc1ccc(OC)c(OC(C)=O)c1)C2=O (stereo not drawn) [deoxysappanone b 7,3'-dimethyl ether acetate] | 0.0757
10 | OCCOCCN1CCN(C(c2ccccc2)c2ccc(Cl)cc2)CC1 (stereo not drawn) [hydroxyzine pamoate] | 0.177
11 | CC(=O)O[C@H]1C[C@@H](OC(C)=O)C(C)(C)C2C[C@@H](O)[C@]3(C)C(CC[C@@]4(C)[C@H](c5ccoc5)OC(=O)[C@H]5O[C@]543)[C@]21C (stereo partly drawn) [7-deacetylkhivorin] | 0.115
12 | Cc1cc(-n2c(=O)[nH]c(=O)n(C)c2=O)ccc1Oc1ccc(SC(F)(F)F)cc1 [toltrazuril] | 0.116
13 | Cc1ccccc1N1C(=O)c2cc(S(N)(=O)=O)c(Cl)cc2NC1C (stereo not drawn) [metolazone] | -0.00861
14 | CO[C@H]1[C@H](O)[C@@H](O)[C@H](O)[C@H](O)[C@H]1O [quebrachitol] | 0.0492
15 | COc1ccc(-c2coc3c(OC)c(OC)cc(O)c3c2=O)cc1 [isotectorigenin, 7-methyl ether] | -0.0306
16 | CC(C)COC(=O)c1ccc(N)cc1 [isobutamben] | -0.0767
17 | COc1ccc(C(=O)c2ccc(O)cc2)c(O)c1O [2,3,4'-trihydroxy-4-methoxybenzophenone] | 0.0454
18 | COc1ccc2[nH]c([S+]([O-])Cc3ncc(C)c(OC)c3C)nc2c1 (stereo not drawn) [omeprazole] | 0.101
19 | CCCCC(CC)CN=C(N)N=C(N)NCCCCCCNC(N)=NC(N)=NCC(CC)CCCC (stereo not drawn) [alexidine hydrochloride] | -1.32
20 | CC(=O)Nc1ccc(O)cc1 [acetaminophen] | -0.00664
21 | CC(=O)Oc1c(C)c(C)c2c(c1C)CCC(C)(CCCC(C)CCCC(C)CCCC(C)C)O2 (stereo not drawn) [alpha-tochopheryl acetate] | -0.0684
22 | C=CCSCC(N)C(=O)O (stereo not drawn) [l-deoxyalliin] | -0.0297
23 | O=S(=O)(O)CCCS(=O)(=O)O [eprodisate disodium] | 0.125
24 | CO/N=C(\C(=O)N[C@@H]1C(=O)N2C(C(=O)O)=C(C[N+]3(C)CCCC3)CS[C@H]12)c1csc(N)n1 [cefepime hydrochloride] | 0.0629
25 | CCOC(=O)[C@H](CCc1ccccc1)N[C@@H](C)C(=O)N1CCC[C@H]1C(=O)O [enalapril maleate] | 0.294

Row | SMILES | log
26 | CC(=O)N[C@@H](Cc1ccccc1)C(=O)O [acetylphenylalanine] | -0.102
27 | Cn1nnnc1SCC1=C(C(=O)O)N2C(=O)[C@@H](NC(=O)[C@H](OC=O)c3ccccc3)[C@H]2SC1 [cefamandole nafate] | 0.211
28 | OCC(O)C(O)C(O)C(O)C(O)CO (stereo not drawn) [perseitol] | 0.172
29 | CC(C)=CCC/C(C)=C/CC/C(C)=C/CC/C(C)=C/CC1=C(C)C(=O)c2ccccc2C1=O [menaquinone-4] | 0.0307
30 | COc1cc(O)c(C)c(O)c1 [2,6-dihydroxy-4-methoxytoluene] | 0.0157
31 | C[C@]12CC[C@@H]3c4ccc(O)cc4CC[C@H]3[C@@H]1C[C@H](O)[C@@H]2O [epiestriol] | -0.163
32 | C[C@H](CCC(=O)O)[C@H]1CC[C@H]2[C@@H]3CC[C@@H]4CCCC[C@]4(C)[C@H]3CC[C@]12C [ursocholanic acid] | -0.224
33 | CC1=C(CC(=O)O)c2cc(F)ccc2/C1=C\c1ccc([S+](C)[O-])cc1 (stereo not drawn) [sulindac] | 0.0335
34 | CC(Oc1c(Cl)cccc1Cl)C1=NCCN1 (stereo not drawn) [lofexidine  hydrochloride] | -0.0105
35 | Cc1cccc2c3c(ccc12)C1=C(C(=O)C3=O)[C@@H](C)CO1 [dihydrotanshinone i] | -0.134
36 | C[C@]12CC[C@@H]3c4ccc(O)cc4CC[C@H]3[C@@H]1C[C@@H](O)[C@@H]2O [estriol] | 0.0437
37 | CCOc1ccc(C(=O)c2ccc(O)c(O)c2O)cc1 [2,3,4-trihydroxy-4'-ethoxybenzophenone] | -0.0238
38 | CCCCC(=O)O[C@]1(C(=O)CO)CC[C@H]2[C@@H]3CCC4=CC(=O)CC[C@]4(C)[C@H]3[C@@H](O)C[C@@]21C [hydrocortisone valerate] | 0.0866
39 | CCc1cccc2c3c([nH]c12)C(CC)(CC(=O)O)OCC3 (stereo not drawn) [etodolac] | 0.121
40 | Cc1noc(NS(=O)(=O)c2ccc(N)cc2)c1C [sulfisoxazole] | 0.00411
41 | CN(C)[C@@H]1C(O)=C(C(N)=O)C(=O)[C@@]2(O)C(O)=C3C(=O)c4c(O)ccc(Cl)c4[C@@H](O)[C@H]3C[C@@H]12 [demeclocycline hydrochloride] | 0.0615
42 | COC(=O)[C@@H]1OC(=O)C2OC23[C@@]1(C)CCC1[C@@]2(C)CCC(=O)C(C)(C)C2C[C@@H](OC(C)=O)[C@]13C (stereo partly drawn) [dihydrogedunic acid, methyl ester] | 0.156
43 | Cn1c([N+](=O)[O-])cnc1COC(N)=O [ronidazole] | 0.037
44 | NC(N)=O [urea] | -0.0748
45 | COc1ccc(C(=O)NCc2ccc(OCCN(C)C)cc2)cc1OC [itopride  hydrochloride] | 0.0795
46 | N[C@@H](C(=O)N[C@@H]1C(=O)N2C(C(=O)O)=C(Cl)CS[C@H]12)c1ccccc1 [cefaclor] | -0.316
47 | COc1ccc(-c2cc(C(F)F)nn2-c2ccc(S(N)(=O)=O)cc2)cc1F [deracoxib] | 0.0569
48 | CC(Oc1ccccc1)C(=O)N[C@@H]1C(=O)N2[C@@H]1SC(C)(C)[C@@H]2C(=O)O (stereo partly drawn) [phenethicillin potassium] | 0.127
49 | OC[C@H]1O[C@@H](O[C@@H]2[C@@H](CO)OC(O)(CO)[C@H]2O)[C@H](O)[C@@H](O)[C@H]1O (mixture of isomers) [lactulose] | 0.131
50 | C[C@@H]1CC[C@@]2(OC1)O[C@H]1C[C@H]3[C@@H]4CC[C@@H]5C[C@@H](O)CC[C@]5(C)[C@H]4CC[C@]3(C)[C@H]1[C@@H]2C [smilagenin] | 0.0431

Row | SMILES | log
51 | Cc1cc(O)c(C=O)c2c1C(=O)Oc1c(COC(=O)/C=C/C(=O)O)c(O)c(C(=O)O)c(C)c1O2 [fumarprotocetraric acid] | 0.184
52 | CN(C)CCOC(=O)COc1ccc(Cl)cc1 [meclofenoxate hydrochloride] | 0.0186
53 | O=C(OCc1ccccc1)c1ccccc1 [benzyl benzoate] | -0.0614
54 | CCCc1nc(C(C)(C)O)c(C(=O)O)n1Cc1ccc(-c2ccccc2-c2nnn[nH]2)cc1 [olmesartan] | -0.0819
55 | Cc1ccc2c(Cl)cc(Cl)c(O)c2n1 [chlorquinaldol] | -0.0396
56 | N=C(N)N/N=C/c1c(Cl)cccc1Cl [guanabenz acetate] | 0.277
57 | OC(CCN1CCCCC1)(c1ccccc1)C1CCCCC1 (stereo not drawn) [trihexyphenidyl hydrochloride] | -0.0675
58 | CN(C)CC[C@@H](c1ccc(Cl)cc1)c1ccccn1 [dexchlorpheniramine maleate] | 0.0626
59 | CN(CCOc1ccc(CC2SC(=O)NC2=O)cc1)c1ccccn1 (stereo not drawn) [rosiglitazone maleate] | 0.243
60 | C[C@H]1C[C@@H]2[C@H]([C@@H](O)C[C@@]3(C)[C@H]2CC[C@]3(O)C(=O)COC(=O)CCC(=O)O)[C@@]2(C)C=CC(=O)C=C12 [methylprednisolone sodium succinate] | -0.0256
61 | Nc1cc(-c2ccncc2)c[nH]c1=O [inamrinone] | 0.0264
62 | CC(N)C12CC3CC(CC(C3)C1)C2 (stereo not drawn) [rimantadine hydrochloride] | 0.00622
63 | COC(=O)C(N)CS (stereo not drawn) [mecysteine hydrochloride] | -0.725
64 | CC(C)(C(=O)c1cccnc1)c1cccnc1 [metyrapone] | 0.0547
65 | NCCCCNCCCN [spermidine trihydrochloride] | 0.0442
66 | CN1CC(=O)NC1=N [creatinine] | 0.0872
67 | C=CC(C)(O)CCC1C(=C)CC(O)C2C(C)(C)CCCC12C (stereo not drawn) [larixol] | 0.0431
68 | CC(=O)N(O)CCCCCNC(=O)CCC(=O)N(O)CCCCCNC(=O)CCC(=O)N(O)CCCCCN [deferoxamine mesylate] | -0.275
69 | O=C1Cc2cc(CCN3CCN(c4nsc5ccccc45)CC3)c(Cl)cc2N1 [ziprasidone mesylate] | -0.00118
70 | CC(C)/N=c1\cc2n(-c3ccc(Cl)cc3)c3ccccc3nc-2cc1Nc1ccc(Cl)cc1 [clofazimine] | 0.027
71 | CCNC(=O)CC[C@H](N)C(=O)O [theanine potassium] | 0.252
72 | CO[C@@]1(NC(=O)CSCC#N)C(=O)N2C(C(=O)O)=C(CSc3nnnn3C)CS[C@@H]21 [cefmetazole sodium] | 0.114
73 | C[C@@H]1[C@H](O)[C@@H](C)/C=C/C=C/C=C/C=C/C=C/C=C/C=C/[C@H](O[C@@H]2O[C@H](C)[C@@H](O)[C@H](N)[C@@H]2O)C[C@@H]2O[C@](O)(C[C@@H](O)C[C@@H](O)[C@H](O)CC[C@@H](O)C[C@@H](O)CC(=O)O[C@H]1C)C[C@H](O)[C@H]2C(=O)O [amphotericin b] | -0.382

Structural class: the entries above containing fluorine (3)
Row | SMILES | log
12 | Cc1cc(-n2c(=O)[nH]c(=O)n(C)c2=O)ccc1Oc1ccc(SC(F)(F)F)cc1 [toltrazuril] | 0.116
33 | CC1=C(CC(=O)O)c2cc(F)ccc2/C1=C\c1ccc([S+](C)[O-])cc1 (stereo not drawn) [sulindac] | 0.0335
47 | COc1ccc(-c2cc(C(F)F)nn2-c2ccc(S(N)(=O)=O)cc2)cc1F [deracoxib] | 0.0569
